Source: paper PMC11046306, “METTL17 is an Fe-S cluster checkpoint for mitochondrial translation” (Molecular cell, 2024)
Results are given in words; binding and its absence hold for the method and conditions named. Where a sequence is shown, tags or fusion partners need not be part of it.

Molecular target: human METTL17-8XHIS (human) (UniProt Q9H7H0)
Test: SEC; analytical gel filtration of purified METTL17-8XHIS on Superdex 200 increase 10/300 GL; both purified

B1: human METTL17-8XHIS (protein, UniProt Q9H7H0 28-456)
chain: AALVPGVTQVDNKSGFLQKRPHRQHPGILKLPHVRLPQALANGAQLLLLGSAGPTMENQVQTLTSYLWSRHLPVEPEELQRRARHLEKKFLENPDLSQTEEKLRGAVLHALRKTTYHWQELSYTEGLSLVYMAARLDGGFAAVSRAFHEIRARNPAFQPQTLMDFGSGTGSVTWAAHSIWGQSLREYMCVDRSAAMLVLAEKLLKGGSESGEPYIPGVFFRQFLPVSPKVQFDVVVSAFSLSELPSKADRTEVVQTLWRKTGHFLVLVENGTKAGHSLLMDARDLVLKGKEKSPLDPRPGFVFAPCPHELPCPQLTNLACSFSQAYHPIPFSWNKKPKEEKFSMVILARGSPEEAHRWPRITQPVLKRPRHVHCHLCCPDGHMQHAVLTARRHGRDLYRCARVSSWGDLLPVLTPSAFPPSTAQDPSES
B1 was tested, and the binding was “no binding”.
